Where two headings read alike, the source gives them in different places. The structures given here were assigned with low confidence; some may be wrong.
Experiments:
ΔTM rat FAAH = ΔTM rat FAAH (Rattus norvegicus, UniProt P97612); assay: Fluorescent assay protocol for ΔTM rat FAAH (AAMCA substrate); format: biochemical; conditions: read-out: IC50 rFAAH
Human FAAH (MBPΔTMhFAAH) = Human FAAH (MBPΔTMhFAAH) (Homo sapiens, UniProt O00519); assay: Fluorescent assay protocol for hFAAH; conditions: read-out: IC50 hFAAH
Rat MAGL (rMAGL) = Rat MAGL (rMAGL) (Rattus norvegicus, UniProt Q8R431); assay: Fluorescent assay protocol for rMAGL; format: biochemical; conditions: read-out: IC50 rMAGL
Human MAGL (hMAGL) = Human MAGL (hMAGL) (Homo sapiens, UniProt Q99685); assay: Fluorescent assay protocol for hMAGL (AHMMCE substrate); format: biochemical; conditions: read-out: IC50 hMAGL
[1] = ΔTM rat FAAH, AAMCA substrate, 15 min preincubation
[2] = human FAAH (MBP fusion, ΔTM), procedure as for rFAAH
[3] = recombinant rat MAGL, procedure as for hMAGL
[4] = recombinant human MAGL, AHMMCE substrate, 15 min preincubation

Protein sequences, listed by entry. Tags and fused reporters are not part of them. Lines headed by an entry give the natural chain unless they say otherwise; changes in a name come on top. Residues count along the entry.
UniProt P97612, 30-579 limits assumed, stated change not applied: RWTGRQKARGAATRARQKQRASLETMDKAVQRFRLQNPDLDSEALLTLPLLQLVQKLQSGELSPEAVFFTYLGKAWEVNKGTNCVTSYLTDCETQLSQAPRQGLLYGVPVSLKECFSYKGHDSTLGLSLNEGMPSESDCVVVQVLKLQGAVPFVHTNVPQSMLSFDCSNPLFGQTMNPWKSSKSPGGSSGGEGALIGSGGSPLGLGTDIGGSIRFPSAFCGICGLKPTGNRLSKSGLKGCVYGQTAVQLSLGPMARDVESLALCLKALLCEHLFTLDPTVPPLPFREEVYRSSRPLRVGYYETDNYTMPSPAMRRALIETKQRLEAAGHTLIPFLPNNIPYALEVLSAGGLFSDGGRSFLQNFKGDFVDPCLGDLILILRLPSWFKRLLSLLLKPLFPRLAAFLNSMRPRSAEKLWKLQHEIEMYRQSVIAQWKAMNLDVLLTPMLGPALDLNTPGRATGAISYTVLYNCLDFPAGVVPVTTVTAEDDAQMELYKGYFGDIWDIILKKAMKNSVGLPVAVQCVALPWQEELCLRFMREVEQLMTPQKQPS
UniProt O00519, 30-579 limits assumed, stated change not applied: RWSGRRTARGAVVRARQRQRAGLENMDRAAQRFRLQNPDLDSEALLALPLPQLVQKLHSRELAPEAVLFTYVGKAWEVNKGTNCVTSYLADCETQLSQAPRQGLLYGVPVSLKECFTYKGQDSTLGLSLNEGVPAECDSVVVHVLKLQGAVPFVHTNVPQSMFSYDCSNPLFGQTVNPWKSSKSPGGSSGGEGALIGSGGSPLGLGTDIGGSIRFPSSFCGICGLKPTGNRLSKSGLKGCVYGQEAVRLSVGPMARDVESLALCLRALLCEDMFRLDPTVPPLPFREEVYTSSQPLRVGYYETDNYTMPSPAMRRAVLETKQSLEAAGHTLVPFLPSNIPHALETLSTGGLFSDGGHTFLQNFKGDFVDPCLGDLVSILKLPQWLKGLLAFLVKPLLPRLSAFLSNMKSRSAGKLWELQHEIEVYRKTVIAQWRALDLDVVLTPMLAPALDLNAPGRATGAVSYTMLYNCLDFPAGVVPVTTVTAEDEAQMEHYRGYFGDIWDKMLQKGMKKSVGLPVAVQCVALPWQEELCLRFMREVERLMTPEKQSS
UniProt Q8R431, whole entry: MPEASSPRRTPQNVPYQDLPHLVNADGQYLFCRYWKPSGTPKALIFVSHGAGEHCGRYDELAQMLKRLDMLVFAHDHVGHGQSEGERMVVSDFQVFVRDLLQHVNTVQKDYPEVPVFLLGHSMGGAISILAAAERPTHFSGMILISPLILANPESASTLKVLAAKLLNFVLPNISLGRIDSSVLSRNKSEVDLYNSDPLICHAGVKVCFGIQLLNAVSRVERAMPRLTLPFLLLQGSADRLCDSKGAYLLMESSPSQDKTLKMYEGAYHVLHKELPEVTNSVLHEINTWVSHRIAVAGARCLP
UniProt Q99685, whole entry: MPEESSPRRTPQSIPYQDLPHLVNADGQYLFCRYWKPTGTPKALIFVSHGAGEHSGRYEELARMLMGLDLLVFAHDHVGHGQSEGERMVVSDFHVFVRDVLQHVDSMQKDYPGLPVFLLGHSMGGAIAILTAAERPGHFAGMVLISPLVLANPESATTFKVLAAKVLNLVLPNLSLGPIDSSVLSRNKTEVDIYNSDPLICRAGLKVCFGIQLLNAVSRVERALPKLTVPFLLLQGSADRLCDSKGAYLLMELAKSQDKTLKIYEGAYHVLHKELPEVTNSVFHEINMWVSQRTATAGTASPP

Row | IC50 (ΔTM rat FAAH; [1]) | IC50 (Human FAAH (MBPΔTMhFAAH); [2]) | IC50 (Rat MAGL (rMAGL); [3]) | IC50 (Human MAGL (hMAGL); [4]) | Structure (SMILES) | IC50 (ΔTM rat FAAH) | IC50 (Human FAAH (MBPΔTMhFAAH)) | IC50 (Rat MAGL (rMAGL)) | IC50 (Human MAGL (hMAGL))
1 | > 1000 nM | > 1000 nM | > 1000 nM | > 1000 nM | O=C(N1C[C@@H]2C[C@H]1CN2c1cccc(OCc2ccccc2)c1)n1cnc(-c2ccccc2)c1 |  |  |  | 
2 |  |  |  |  | C[C@H]1CN(Cc2cccc(Oc3ccccc3)c2)CCN1C(=O)Nc1cccc(-c2cccc(C#N)c2)c1 | 10 to 100 nM | 10 to 100 nM | > 1000 nM | > 1000 nM
3 | 10 to 100 nM | 10 to 100 nM | > 1000 nM | > 1000 nM | O=C(Nc1cccc(Br)c1)N1C[C@@H]2C[C@H]1CN2Cc1ccc2ccccc2n1 |  |  |  | 

Source: US11214578B2, “Urea/carbamates FAAH MAGL or dual FAAH/MAGL inhibitors and uses thereof” (Northeastern University, priority 2014, dated 2022)
